Sequences of proteins named here, by UniProt entry; tags and fusion partners are left off. A change or cut given only in a name is not applied to a line headed by its entry.
UniProt P18054: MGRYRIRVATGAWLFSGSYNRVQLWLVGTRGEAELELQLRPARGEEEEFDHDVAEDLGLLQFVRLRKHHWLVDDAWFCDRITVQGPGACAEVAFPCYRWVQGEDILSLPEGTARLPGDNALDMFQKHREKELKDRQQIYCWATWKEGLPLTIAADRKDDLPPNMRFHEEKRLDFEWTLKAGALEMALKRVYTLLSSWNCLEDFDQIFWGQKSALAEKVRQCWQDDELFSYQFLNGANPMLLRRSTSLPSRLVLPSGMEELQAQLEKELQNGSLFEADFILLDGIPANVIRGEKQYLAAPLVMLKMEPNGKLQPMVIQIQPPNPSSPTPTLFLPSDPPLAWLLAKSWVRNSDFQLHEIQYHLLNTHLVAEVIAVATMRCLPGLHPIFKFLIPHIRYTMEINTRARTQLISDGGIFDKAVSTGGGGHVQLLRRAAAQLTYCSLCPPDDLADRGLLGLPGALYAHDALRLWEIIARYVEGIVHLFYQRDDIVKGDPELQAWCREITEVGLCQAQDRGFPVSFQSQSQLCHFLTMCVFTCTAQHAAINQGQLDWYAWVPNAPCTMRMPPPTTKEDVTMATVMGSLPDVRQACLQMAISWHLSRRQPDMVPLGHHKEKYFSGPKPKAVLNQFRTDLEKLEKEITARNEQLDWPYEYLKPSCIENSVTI

In all, about 580,000 compounds went through this assay and about 6,100 (1.1%) were called active. Inconclusive means that the source gave no clear call. Such entries were picked first, then a sample of the others. Calls follow the shape of the dose curve; as a rule, active = well fitted inhibition curve with a large enough effect; inconclusive = small, poorly fitted or top-dose-only effect, or another doubt; inactive = no such curve, though single readings can be large or run the other way. Where the call is inconclusive, the potency comes from a doubtful curve fit.
These molecules were tested against Polyunsaturated fatty acid lipoxygenase ALOX12 (Homo sapiens) (UniProt P18054) (assay: Primary qHTS assay for inhibitors of human arachidonate 12S-lipoxygenase (ALOX12): Round 2). Conditions: purified 12hLO, xylenol orange hydroperoxide absorbance; series mostly up to 108 µM.
Method in brief: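 Purified human 12hLO (150 nM final) in 25 mM Hepes, 0.01% Triton X-100, pH 7.0 was preincubated 15 min at room temperature with compound. Then 40 uM arachidonic acid was added, 30 min. Hydroperoxide was read by Fe-XO absorbance ratio 573/405 nm.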
With `Cc1ccc(S(=O)(=O)Nc2c(O)c3ccccc3oc2=O)cc1` the Potency was inconclusive: 50.1 µM [inhibitor, partial curve, poor fit].
`O=c1c2ccccc2nc2sc3ccccc3n12` was tested, and the Potency was “inactive”.
`Nc1ncnc2c1ncn2[C@@H]1O[C@H](C(=O)NCC(F)(F)F)[C@@H](O)[C@H]1O` was tested, and the Potency was inconclusive: 31.6 µM [inhibitor, single point].
With `CCc1cc(=O)[nH]c(-n2nc(C)cc2NC(=O)c2ccccc2Br)n1` the Potency was inconclusive: 44.7 µM [inhibitor, partial curve, poor fit].
With `O=C(NCc1ccccc1)c1ncoc1-c1cccs1` the Potency was “inactive”.
For `CC1CC1C(=O)Nc1ccc2c(c1)CCC2` (configuration not stated), the Potency was inconclusive: 14.1 µM [inhibitor, partial curve, poor fit].
In the case of `COc1cc(CNCCc2ccccc2F)ccc1OCC(=O)N1CCCCC1`, the Potency is reported as “inactive”.
With `COC(=O)c1cc(CNC(=O)C2Cc3ccccc3S2)ccc1OC` (configuration not stated) the Potency was inconclusive: 89.1 µM [inhibitor, single point].
`Cc1cccc(C(=O)N2CC(=O)N(C3CCCCC3)CC(OCc3ccccc3)C2)n1` (configuration not stated) was tested, and the Potency was inconclusive: 25.1 µM [inhibitor, partial curve].
`CCCn1cc2c3c(cccc31)CN(C(=O)c1ccccc1OC)CC2` was tested, and the Potency was inconclusive: 44.7 µM [inhibitor, partial curve].
With `O=C(Cc1cccs1)Nc1nnc(COc2ccccc2)s1` the Potency was inconclusive: 50.1 µM [inhibitor, partial curve, poor fit].
For `COc1ccc(NC(=O)c2nn(C(C)C)c(=O)c3ccccc23)cc1`, the Potency was inconclusive: 50.1 µM [inhibitor, partial curve, poor fit].
With `CN(c1ccccc1)S(=O)(=O)c1cc(C(=O)OCC(N)=O)ccc1Cl` the Potency was inconclusive: 0.224 µM [inhibitor, full curve, poor fit].
With `Cc1ccc(S(=O)(=O)N2CCCC2c2ccccc2)cc1` (configuration not stated) the Potency was “inactive”.
In the case of `CCOc1ccc(C(=O)N2CCC(Cc3nc(-c4ccc(OC)cc4)no3)CC2)cc1OCC`, the Potency is reported as “inactive”.
For `COc1cc(-c2csc(NC3CCCCC3)n2)cc(OC)c1OC`, the Potency was inconclusive: 12.6 µM [inhibitor, partial curve, poor fit].
With `CCC(=O)Nc1ccc(C)cc1-c1nnc(SCC(=O)Nc2ccc(Cl)c(Cl)c2)[nH]c1=O` the Potency was inconclusive: 50.1 µM [inhibitor, partial curve, poor fit].
With `CC1C/C(=N\NC(=S)NCc2ccccc2)CC(C)(C)C1` (configuration not stated) the Potency was inconclusive: 56.2 µM [inhibitor, partial curve, poor fit].
With `Cc1sc2nc3c(C(=O)N4CCCC4)cc(C(=O)c4ccccc4O)cn3c(=O)c2c1C` the Potency was inconclusive: 44.7 µM [inhibitor, partial curve, poor fit].
With `COc1cccc(-c2nn(-c3ccccc3)cc2CN(C)Cc2ccon2)c1` the Potency was “inactive”.
With `Cc1ccc(NS(=O)(=O)c2ccc3c(c2)-c2oncc2CO3)cc1C` the Potency was inconclusive: 39.8 µM [inhibitor, partial curve, poor fit].
In the case of `COc1ccc(-c2ccc(C(=O)NCc3ccc(F)c(F)c3)c3occc23)c(C)c1`, the Potency is reported as inconclusive: 0.1 µM [inhibitor, full curve, poor fit].
In the case of `CCN(CC)S(=O)(=O)c1ccc(-c2csc(-c3ccc(OC)c(OC)c3)n2)cc1`, the Potency is reported as “inactive”.
`Cc1oc(S(=O)(=O)N(C)C)cc1C(=O)Nc1ccc(Cl)cc1` was tested, and the Potency was inconclusive: 141 µM [inhibitor, single point].
With `CS(=O)(=O)N1CCCN(C(=O)CN2CCCC2=O)CCNC(=O)CC1c1ccccc1` (configuration not stated) the Potency was “inactive”.
In the case of `COc1cccc(CN2C(=O)OC3(CCN(Cc4ccc5c(c4)CCO5)CC3)C2(C)c2cccnc2)c1` (configuration not stated), the Potency is reported as “inactive”.
With `CN1CCN(NC(=O)COc2cccc(C(F)(F)F)c2)CC1` the Potency was “inactive”.
For `N=C1/C(=C\c2ccc(-c3cc(Cl)cc(Cl)c3)o2)C(=O)N=C2SC=C(c3ccccc3)N12`, the Potency was inconclusive: 25.1 µM [inhibitor, partial curve, poor fit].
`COc1ccc(-c2csc(CCn3nc(C)cc3C)n2)cc1OC` was tested, and the Potency was “inactive”.
With `CS(=O)(=O)Nc1cccc(C2=NN(S(=O)(=O)c3ccc(F)cc3)C(c3cccs3)C2)c1` (configuration not stated) the Potency was inconclusive: 63.1 µM [inhibitor, partial curve, poor fit].
In the case of `CCCC(=O)Nc1nc(C)c(-c2csc(Nc3ccc(Cl)cc3)n2)s1`, the Potency is reported as inconclusive: 56.2 µM [inhibitor, partial curve, poor fit].
`Oc1ccc(Br)cc1/C=N/N1CCCCC1` was tested, and the Potency was inconclusive: 39.8 µM [inhibitor, partial curve, poor fit].
In the case of `COC(=O)c1scc(-c2ccc(C)cc2)c1S(=O)(=O)Nc1cc(OC)c(OC)c(OC)c1`, the Potency is reported as “inactive”.
`COC(=O)C1=C(CS(=O)(=O)c2cc(Cl)ccc2OC)NC(=O)NC1c1ccccc1` (configuration not stated) was tested, and the Potency was inconclusive: 63.1 µM [inhibitor, partial curve, poor fit].
For `CC1=NN(c2nc(-c3ccccc3)cs2)C(=O)C1`, the Potency was “inactive”.
In the case of `COc1ccc(C=C(C(=O)O)c2ccc(OC)cc2)cc1`, the Potency is reported as inconclusive: 35.5 µM [inhibitor, partial curve, poor fit].
In the case of `CCOC(=O)C1CCN(CC(O)c2cccc(C(F)(F)F)c2)CC1` (configuration not stated), the Potency is reported as inconclusive: 2.51 µM [inhibitor, full curve, poor fit].
For `Cc1n[nH]c(C)c1S(=O)(=O)Nc1ncn(Cc2ccc(F)cc2)n1`, the Potency was inconclusive: 70.8 µM [inhibitor, single point].
`COC(=O)CC(c1ccccc1F)N1Cc2ccccc2C1=O` (configuration not stated) was tested, and the Potency was inconclusive: 1.78 µM [inhibitor, partial curve, poor fit].
With `CCOc1cc(/C=C2\CCCC(C(=O)C(F)(F)F)=C2O)ccc1O` the Potency was inconclusive: 50.1 µM [inhibitor, partial curve, poor fit].
For `O=C(/C=C/C=C/c1ccc([N+](=O)[O-])cc1)c1ccccc1`, the Potency was inconclusive: 50.1 µM [inhibitor, partial curve].
In the case of `COC(=O)/C(=C\c1ccc(OC(=O)c2ccccc2)cc1)C(C)=O`, the Potency is reported as inconclusive: 31.6 µM [inhibitor, partial curve, poor fit].

From PubChem BioAssay AID1671190 (National Center for Advancing Translational Sciences (NCATS), 2021)
Potency is read from the fitted curve at half-maximal effect.
